Data: PubChem BioAssay AID588590 (National Center for Advancing Translational Sciences (NCATS), 2011)
Hit rate of the full screen: of about 390,000 compounds, about 4,000 (1%) were called active. Inconclusive means that the source gave no clear call. Such entries were picked first, then a sample of the others. Calls follow the shape of the dose curve; as a rule, active = well fitted inhibition curve with a large enough effect; inconclusive = small, poorly fitted or top-dose-only effect, or another doubt; inactive = no such curve, though single readings can be large or run the other way. A potency beside an inconclusive call is a rough fit, not a confirmed value.

Chains of the proteins cited; added tags and fusions are not shown. Lines headed by an entry give the natural chain unless they say otherwise; changes in a name come on top.
UniProt Q9UNA4: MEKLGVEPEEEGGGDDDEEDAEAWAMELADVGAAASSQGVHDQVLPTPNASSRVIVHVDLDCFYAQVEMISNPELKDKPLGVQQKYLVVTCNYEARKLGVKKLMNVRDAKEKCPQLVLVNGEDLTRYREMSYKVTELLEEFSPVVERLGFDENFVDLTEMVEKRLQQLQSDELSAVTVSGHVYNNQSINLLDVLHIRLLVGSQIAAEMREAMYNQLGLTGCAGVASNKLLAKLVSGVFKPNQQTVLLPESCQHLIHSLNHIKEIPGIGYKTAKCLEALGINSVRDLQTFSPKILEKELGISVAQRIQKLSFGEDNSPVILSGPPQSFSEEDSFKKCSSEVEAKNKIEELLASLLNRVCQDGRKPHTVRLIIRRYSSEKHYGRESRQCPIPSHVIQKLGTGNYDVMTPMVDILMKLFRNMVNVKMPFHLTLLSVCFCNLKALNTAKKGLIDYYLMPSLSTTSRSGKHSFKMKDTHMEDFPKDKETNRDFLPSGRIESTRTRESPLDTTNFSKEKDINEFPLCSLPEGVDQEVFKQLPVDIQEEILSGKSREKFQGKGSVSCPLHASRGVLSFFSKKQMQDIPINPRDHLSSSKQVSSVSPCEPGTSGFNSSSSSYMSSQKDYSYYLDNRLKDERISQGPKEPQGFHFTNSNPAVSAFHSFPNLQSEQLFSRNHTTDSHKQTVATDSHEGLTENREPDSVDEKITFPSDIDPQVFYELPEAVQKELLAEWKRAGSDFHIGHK

These compounds were tested against DNA polymerase iota (Homo sapiens) (UniProt Q9UNA4) (assay: qHTS for Inhibitors of Polymerase Iota). Conditions: Pol iota fluorescent replication assay, 10 min; series mostly up to 115 µM; activity, negative = inhibition: at the top concentration.
Outline: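 Fluorescent replication assay read twice, at 0 min and 10 min after adding 50 nM (final) substrate. Enzyme (10 nM) and compounds were first incubated 15 min at room temperature; enzyme-free buffer wells were negative controls.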
Potency is read from the fitted curve at half-maximal effect.

Potency, inactive:
Cc1ccc(S(=O)(=O)N2CCN(c3nc(-c4cccs4)nc4ccccc34)CC2)cc1

Potency, inconclusive:
Cc1ccc(NC(=O)C2CCN(C(=O)[C@@H]3Cc4ccccc4CN3)CC2)cc1 79.4 µM [inhibitor, partial curve, poor fit], Oc1ccc(Br)cc1C1C=C(c2ccc3c(c2)OCO3)NC(c2ccc(Cl)cc2)N1 (stereo unspecified) 15.8 µM [inhibitor, partial curve, poor fit], COCC1CCN(C(=O)c2cc(COc3ccc(-n4cncn4)cc3)on2)C1 (stereo unspecified) 89.1 µM [inhibitor, single point], O=C(CC(c1ccco1)S(=O)(=O)c1ccccc1)c1ccc(F)cc1 (stereo unspecified) 39.8 µM [inhibitor, partial curve], O=C1/C(=C\c2ccncc2)CCc2ccccc21 12.6 µM [inhibitor, partial curve, poor fit], O=C(NC1CCCc2ccccc21)c1cccc(Br)c1 (stereo unspecified) 89.1 µM [inhibitor, single point], CCC(CO)Oc1cc(NC(=O)c2ccc(Cl)cc2)c2ncn(C(C)C)c2c1 (stereo unspecified) 10 µM [inhibitor, full curve, poor fit], Cc1ccc(CSC2=Nc3ccccc3C3=NC(CCC(=O)NCc4cccs4)C(=O)N23)cc1 (stereo unspecified) 89.1 µM [inhibitor, single point], CC(=O)Nc1ccc(C(=O)CSc2nnc3scc(-c4ccccc4)n23)cc1 44.7 µM [inhibitor, partial curve, poor fit], O=C(CN1C(=O)S/C(=C\c2ccccc2F)C1=O)NC1C=CS(=O)(=O)C1 (stereo unspecified) 15.8 µM [inhibitor, partial curve], CCOc1ccc(-c2nnn(CC(=O)NCc3ccco3)n2)cc1OCC 1.12 µM [inhibitor, partial curve, poor fit], Cc1nc([N+](=O)[O-])cn1CC(=O)c1ccc(OC(F)(F)F)cc1 35.5 µM [inhibitor, single point], C#CC1CN(Cc2ccccc2)CC(C#C)N1C (stereo unspecified) 50.1 µM [inhibitor, partial curve, poor fit], O=c1oc2c(-c3cccc(F)c3)cc(O)cc2s1 25.1 µM [inhibitor, partial curve, poor fit], COc1ccc(Cc2ccccc2C(=O)O)cc1 100 µM [inhibitor, partial curve, poor fit], O=C(Nc1cccc(-n2cnnn2)c1)c1cc2ccccc2o1 44.7 µM [inhibitor, partial curve], O=C1NCCO1 35.5 µM [inhibitor, full curve, poor fit], O=C(C1c2ccccc2Oc2ccccc21)N1CCN(c2ccc(Cl)cc2)CC1 0.708 µM [inhibitor, full curve, poor fit], C[C@H](NS(=O)(=O)OCC(Cl)(Cl)Cl)C1CC1c1ccccc1 (stereo partly specified) 39.8 µM [inhibitor, single point], Nc1c(-c2nc(-c3ccccc3)no2)nnn1CC(=O)Nc1ccccc1 79.4 µM [inhibitor, single point], COC(=O)CSc1nnc2n(-c3ccccc3)c(=O)c3c4c(sc3n12)COC(C(C)C)C4 (stereo unspecified) 79.4 µM [inhibitor, partial curve], Nn1cnnc1N/N=C/c1cc([N+](=O)[O-])c(Cl)cc1Cl 11.2 µM [inhibitor, full curve, poor fit], O=C(O)CCCCCCCCCCCNC(=O)NC12CC3CC(CC(C3)C1)C2 89.1 µM [inhibitor, single point], COc1cccc(/C=C2\SC(=S)N(C(C(=O)O)c3ccccc3)C2=O)c1OC (stereo unspecified) 22.4 µM [inhibitor, partial curve], Cn1ccnc1SCC(=O)Nc1ccc2c(c1)COC2=O 44.7 µM [inhibitor, partial curve], Cc1ccc(C)c(N2CCN(C(=O)c3cc4c(=O)n(Cc5cccs5)ccc4nc3C)CC2)c1 39.8 µM [inhibitor, partial curve, poor fit], COc1ccc(-n2sc3ccc(F)cc3c2=O)cc1 31.6 µM [inhibitor, single point], CCn1c(SCC(=O)NCC(=O)Nc2ccc(F)cc2)nnc1-c1cccs1 89.1 µM [inhibitor, single point], O=C(CNC(=O)c1cc(Cl)cc([N+](=O)[O-])c1)NC1CC1 89.1 µM [inhibitor, single point], COc1ccc(NC(=O)c2nc3nccc(C)n3n2)cc1S(=O)(=O)N1CCOCC1 56.2 µM [inhibitor, partial curve, poor fit], O=C(OC1CCOC1=O)C1CCN(S(=O)(=O)c2c(Cl)cccc2Cl)CC1 (stereo unspecified) 89.1 µM [inhibitor, partial curve], Cc1cc(C(=O)Cn2cnc3ccc(Cl)cc3c2=O)c(C)n1C1CC1 89.1 µM [inhibitor, single point], Cc1ccc(NS(=O)(=O)c2cccc(C(=O)OCC(=O)NCc3ccco3)c2)cc1 14.1 µM [inhibitor, full curve, poor fit], COc1cccc(-c2onc3ccc(C(=O)/C=C/N(C)C)cc23)c1 12.6 µM [inhibitor, partial curve, poor fit], COc1ccc2c(=O)c(-c3cnn(-c4ccccc4)c3)c(C)oc2c1 89.1 µM [inhibitor, partial curve, poor fit], CCN(C[C@H]1N[C@@](Cc2ccccc2)(C(=O)OC)[C@H]2C(=O)N(C)C(=O)[C@@H]12)C(=O)C1CCCCC1 31.6 µM [inhibitor, single point], COc1ccccc1C/C(N)=N/OC(=O)c1ccco1 89.1 µM [inhibitor, partial curve, poor fit], O=C(CCc1ccccc1)NC(NC(=S)Nc1ccc(Cl)cc1)C(Cl)(Cl)Cl (stereo unspecified) 3.16 µM [inhibitor, single point], CCN(Cc1ccccc1)C(=O)c1ccc(CNS(=O)(=O)c2ccc(C)cc2)cc1 89.1 µM [inhibitor, single point], Cc1ccc(S(=O)(=O)Nc2nc(C)c(NC(=O)Nc3ccc(Cl)cc3Cl)s2)cc1 15.8 µM [inhibitor, partial curve, poor fit], C#CCOCCOCCOCCNc1nc(N2CCN(C(=O)[C@H]([C@@H](C)CC)n3cc(CCC(=O)O)nn3)CC2)nc(N2CCN(C(=O)[C@H](Cc3ccc(O)cc3)n3cc(CCO)nn3)CC2)n1 31.6 µM [inhibitor, full curve, poor fit]

Potency, active:
CC(=O)c1ccc(S(=O)(=O)Nc2ccc(-c3ccc4nncn4n3)cc2)cc1 50.1 µM, O=C(NCc1ccco1)c1cccc2c1C(=O)c1ccc(/C=C/c3ccccc3)cc1S2(=O)=O 25.1 µM

activity, negative = inhibition, inactive:
CC1CC=CC2C1C(=O)N(Cc1ccccc1)C2c1ccc(/C=C/c2ccccc2)cc1F (stereo unspecified) -4.9%, Cc1cnc(NC(=O)C2CC(=O)N(c3ccc4c(c3)OCCO4)C2)s1 (stereo unspecified) -4.25%, Cc1c(Cl)cccc1NC(=O)C1CCCN(c2nnc(-n3c(C)ccc3C)s2)C1 (stereo unspecified) -27.3%, COc1ccc(-c2c(C#N)c(N)nc3c2CCc2ccccc2-3)cc1OC -5.21%, O=c1[nH][nH]c(=S)n1C1CCCCC1 18.2%, Cn1ncc(C#N)c1/N=C/N1CCCCC1 2.03%, CCCN(C(=O)/C=C/c1nc2ccccc2s1)C1CCS(=O)(=O)C1 (stereo unspecified) -14.8%, Cc1ccc(-c2ccc(CCC(=O)O)n2-c2ccc(C(C)C)cc2)cc1 17.5%, O=C(COC(=O)c1ccc(Br)o1)NC1CCCc2ccccc21 (stereo unspecified) -25.9%, N#CC1=C2SCN(Cc3ccco3)CN2C(=O)CC1c1ccccc1F (stereo unspecified) 5.89%, COC(=O)c1cc2c(s1)-c1ccccc1OC2 1.84%, O=C(/C=C/c1ccccc1)N1CCN(Cc2cc(=O)n3nc(-c4ccccc4)sc3n2)CC1 -7.19%, CCCCCC[N+](C)(C)CCSSCC[N+](C)(C)CCCCCC -2.66%, CCS(=O)(=O)c1ccc2oc(Nc3cccc(OC)c3)nc2c1 -10%, Cn1c(SCC(=O)c2ccc3c(c2)Cc2ccccc2-3)nnc1-c1cccc(N)c1 16.9%, COC(=O)C1=C(C)OC(N)=C(C#N)C1C1CCCCC1 (stereo unspecified) 25.9%, O=c1c2c3c(sc2n(Cc2cc(=O)n4ccccc4n2)c(=O)n1-c1ccc(Cl)cc1)CCC3 -10.2%, O=C1C2CC=CCC2C(=O)N1Cc1ccccc1 (stereo unspecified) -0.792%, CCCc1nn2c(C)c(-c3ccccc3)nc2s1 -9.47%, CCOC(=O)C1=C(C)N(CCCC(=O)O)C(=O)NC1c1ccc(Cl)cc1 (stereo unspecified) -25.5%, O=[N+]([O-])c1cc([N+](=O)[O-])c(Oc2cc(Cl)ccc2Cl)cc1NC1CCCCCCC1 -29.8%, CCOc1cc(-c2nc(-c3ccc(-c4ccc(C)cc4)nc3OC)no2)cc(OCC)c1OCC 26.7%, COc1ccc(OC)c(C2CC(=O)N3CN(c4ccccc4F)CSC3=C2C#N)c1 (stereo unspecified) -17.6%, COC(=O)C1=C(C(=O)OC)[C@@H]2N(C)c3ccc(OC)cc3[C@@]23C[C@@H](C(=O)OC)N(C(=O)c2cc(C)oc2C)C3=N1 26.7%, CC1CCCC(n2c(=S)[nH]c3ccccc3c2=O)C1C (stereo unspecified) -6.12%, COc1cccc(CC(=O)Nc2cc(S(=O)(=O)N3CCOCC3)ccc2OC)c1 -5.31%, COc1ccc(C(C)=O)cc1CSCCC(=O)O -1.88%
